Data on one molecule can be found in patent US20250382726A1.

The chains behind the UniProt entries cited, without tags or fusion partners. Where a name states a change or a piece, a line headed by the entry shows the natural chain unless it says otherwise.
UniProt P25774: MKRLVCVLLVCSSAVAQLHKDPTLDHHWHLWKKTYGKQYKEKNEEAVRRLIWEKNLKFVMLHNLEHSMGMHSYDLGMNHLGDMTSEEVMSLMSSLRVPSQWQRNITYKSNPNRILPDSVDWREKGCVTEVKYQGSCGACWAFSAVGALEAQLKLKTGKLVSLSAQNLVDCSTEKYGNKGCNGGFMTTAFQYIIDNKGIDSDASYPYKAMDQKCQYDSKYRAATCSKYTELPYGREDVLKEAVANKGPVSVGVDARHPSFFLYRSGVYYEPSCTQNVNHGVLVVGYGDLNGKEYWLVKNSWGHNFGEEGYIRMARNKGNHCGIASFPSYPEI

These are yes or no findings as the source states them, for the method shown. A result given as binding can be weak or reduced; the word gives no strength. Sequences can lack the tags named with a protein.

Assay [1] concerns the target recombinant Cathepsin S protein (UniProt P25774). The experiment in a line: BLI (Octet), on-off rate map, kon (1/Ms) against kdis (1/s), both axes logarithmic.
The target is the same in assay [2]. The experiment in a line: ELISA, antibody coated on the plate, Cat S antigen 200 ng/ml, anti-his-HRP, signal relative to parental Fsn0503h = 100 %.

B1: Fsn0503h, humanised anti-Cathepsin S antibody (Fusion Antibodies) (antibody, V domains shown)
VH: EVQLVESGGGLVKPGGSLRLSCAASGFAFSSYDMSWVRQAPGKGLEWVAYITTGGVNTYYPDTVKGRFTISRDNAKNTLYLQMSSLKSEDTAVYYCARHSYFDYWGQGTTVTVSS
VL: DVVMTQSPLSLPVTLGQPASISCRSSQSLVHSNGNTYLHWYLQKPGQSPQLLIYKVSNRFSGVPDRFSGSGSGTDFTLKISRVEAEDVGVYYCSQTTHVPPTFGQGTKLEIK
Regarding B1, the binding result in assay [1] and in assay [2] was “binds” throughout.
